Experiment [1] deals with T1, YukC (BACTH fusion) (B. subtilis 168) (UniProt P71070).
T1 sequence: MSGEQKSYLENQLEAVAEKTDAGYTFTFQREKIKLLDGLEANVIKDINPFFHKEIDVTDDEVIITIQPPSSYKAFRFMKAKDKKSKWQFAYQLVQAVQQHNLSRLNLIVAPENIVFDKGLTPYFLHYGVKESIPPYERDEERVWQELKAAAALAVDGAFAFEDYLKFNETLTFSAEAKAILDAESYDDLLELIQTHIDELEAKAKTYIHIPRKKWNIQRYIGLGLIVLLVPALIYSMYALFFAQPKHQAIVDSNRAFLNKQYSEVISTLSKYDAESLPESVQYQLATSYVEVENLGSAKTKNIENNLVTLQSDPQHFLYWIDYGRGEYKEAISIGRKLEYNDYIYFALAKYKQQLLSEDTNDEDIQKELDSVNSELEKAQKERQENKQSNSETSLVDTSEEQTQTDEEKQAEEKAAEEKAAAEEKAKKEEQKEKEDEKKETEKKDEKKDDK
As to the kind of experiment: two-hybrid.

The target in experiment [2] is YukB (BACTH fusion) (B. subtilis 168) (UniProt C0SPA7). As to the kind of experiment: two-hybrid.
The target of experiment [3] is T2, YueB (BACTH fusion) (B. subtilis 168) (UniProt O32101).
T2 sequence: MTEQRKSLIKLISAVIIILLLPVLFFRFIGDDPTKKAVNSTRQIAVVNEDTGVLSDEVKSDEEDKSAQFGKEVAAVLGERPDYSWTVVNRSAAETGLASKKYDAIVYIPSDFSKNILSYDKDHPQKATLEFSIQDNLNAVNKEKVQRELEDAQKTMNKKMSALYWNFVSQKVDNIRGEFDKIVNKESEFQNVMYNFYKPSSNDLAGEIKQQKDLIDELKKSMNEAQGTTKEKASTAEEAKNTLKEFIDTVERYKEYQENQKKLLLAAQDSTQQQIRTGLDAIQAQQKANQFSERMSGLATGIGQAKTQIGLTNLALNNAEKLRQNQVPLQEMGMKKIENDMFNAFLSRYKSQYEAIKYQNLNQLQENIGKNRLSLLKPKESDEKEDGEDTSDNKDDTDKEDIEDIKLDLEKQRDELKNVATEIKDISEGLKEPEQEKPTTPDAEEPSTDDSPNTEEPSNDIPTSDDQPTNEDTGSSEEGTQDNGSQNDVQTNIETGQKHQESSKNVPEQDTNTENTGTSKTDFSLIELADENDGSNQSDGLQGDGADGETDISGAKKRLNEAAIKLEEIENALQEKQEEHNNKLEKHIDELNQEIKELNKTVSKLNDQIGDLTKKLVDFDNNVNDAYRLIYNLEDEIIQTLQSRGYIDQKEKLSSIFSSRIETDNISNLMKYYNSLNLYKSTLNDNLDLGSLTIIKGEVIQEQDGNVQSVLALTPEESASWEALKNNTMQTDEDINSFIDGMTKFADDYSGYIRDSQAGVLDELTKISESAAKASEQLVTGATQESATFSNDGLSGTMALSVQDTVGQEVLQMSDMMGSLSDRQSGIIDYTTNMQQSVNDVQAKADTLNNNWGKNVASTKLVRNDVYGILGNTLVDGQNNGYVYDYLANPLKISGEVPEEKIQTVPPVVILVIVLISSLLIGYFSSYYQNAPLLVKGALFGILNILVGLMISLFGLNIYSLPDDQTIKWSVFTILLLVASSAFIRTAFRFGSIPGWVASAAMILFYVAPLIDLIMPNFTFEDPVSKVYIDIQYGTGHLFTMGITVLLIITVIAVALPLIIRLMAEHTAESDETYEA
The experiment is described as follows: two-hybrid.

In experiment [4] the target is T3, YukE (BACTH fusion) (B. subtilis 168) (UniProt C0SP85).
T3 sequence: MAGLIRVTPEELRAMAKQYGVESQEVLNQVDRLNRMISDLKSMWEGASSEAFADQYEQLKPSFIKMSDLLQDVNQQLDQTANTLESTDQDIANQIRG
The experiment is described as follows: two-hybrid.

The target of experiment [5] is YxiD N-terminal region (YxiDN), BACTH fusion (B. subtilis 168) (UniProt P42296). As to the kind of experiment: two-hybrid.
Experiment [6] concerns the target YueC (BACTH fusion) (B. subtilis 168) (UniProt O32100). As to the kind of experiment: two-hybrid.
In experiment [7] the target is T4, YukC.strep (B. subtilis 168) (UniProt P71070).
T4 sequence: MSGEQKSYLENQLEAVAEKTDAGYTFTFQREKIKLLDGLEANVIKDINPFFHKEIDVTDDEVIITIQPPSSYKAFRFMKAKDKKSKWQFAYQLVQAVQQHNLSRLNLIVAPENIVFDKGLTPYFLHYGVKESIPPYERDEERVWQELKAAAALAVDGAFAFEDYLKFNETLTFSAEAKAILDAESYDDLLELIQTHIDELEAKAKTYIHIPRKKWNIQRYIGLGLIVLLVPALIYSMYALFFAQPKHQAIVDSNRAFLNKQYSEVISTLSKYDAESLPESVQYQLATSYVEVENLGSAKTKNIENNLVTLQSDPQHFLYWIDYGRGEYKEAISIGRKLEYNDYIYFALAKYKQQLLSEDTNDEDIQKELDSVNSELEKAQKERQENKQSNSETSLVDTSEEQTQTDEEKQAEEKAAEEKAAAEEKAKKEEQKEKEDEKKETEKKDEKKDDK
The experiment is described as follows: pull-down.

Experiment [8] concerns the target T5, YukCΔ217.strep (pseudokinase domain) (B. subtilis 168) (UniProt P71070).
T5 sequence: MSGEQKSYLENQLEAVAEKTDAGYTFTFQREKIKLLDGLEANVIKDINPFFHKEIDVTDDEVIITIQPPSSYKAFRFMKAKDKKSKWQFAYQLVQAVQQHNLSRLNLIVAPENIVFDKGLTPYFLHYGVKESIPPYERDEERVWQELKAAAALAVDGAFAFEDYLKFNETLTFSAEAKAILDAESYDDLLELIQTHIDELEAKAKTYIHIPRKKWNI
The experiment is described as follows: pull-down.

Experiment [9] deals with T6, YueB.strep (B. subtilis 168) (UniProt O32101).
T6 sequence: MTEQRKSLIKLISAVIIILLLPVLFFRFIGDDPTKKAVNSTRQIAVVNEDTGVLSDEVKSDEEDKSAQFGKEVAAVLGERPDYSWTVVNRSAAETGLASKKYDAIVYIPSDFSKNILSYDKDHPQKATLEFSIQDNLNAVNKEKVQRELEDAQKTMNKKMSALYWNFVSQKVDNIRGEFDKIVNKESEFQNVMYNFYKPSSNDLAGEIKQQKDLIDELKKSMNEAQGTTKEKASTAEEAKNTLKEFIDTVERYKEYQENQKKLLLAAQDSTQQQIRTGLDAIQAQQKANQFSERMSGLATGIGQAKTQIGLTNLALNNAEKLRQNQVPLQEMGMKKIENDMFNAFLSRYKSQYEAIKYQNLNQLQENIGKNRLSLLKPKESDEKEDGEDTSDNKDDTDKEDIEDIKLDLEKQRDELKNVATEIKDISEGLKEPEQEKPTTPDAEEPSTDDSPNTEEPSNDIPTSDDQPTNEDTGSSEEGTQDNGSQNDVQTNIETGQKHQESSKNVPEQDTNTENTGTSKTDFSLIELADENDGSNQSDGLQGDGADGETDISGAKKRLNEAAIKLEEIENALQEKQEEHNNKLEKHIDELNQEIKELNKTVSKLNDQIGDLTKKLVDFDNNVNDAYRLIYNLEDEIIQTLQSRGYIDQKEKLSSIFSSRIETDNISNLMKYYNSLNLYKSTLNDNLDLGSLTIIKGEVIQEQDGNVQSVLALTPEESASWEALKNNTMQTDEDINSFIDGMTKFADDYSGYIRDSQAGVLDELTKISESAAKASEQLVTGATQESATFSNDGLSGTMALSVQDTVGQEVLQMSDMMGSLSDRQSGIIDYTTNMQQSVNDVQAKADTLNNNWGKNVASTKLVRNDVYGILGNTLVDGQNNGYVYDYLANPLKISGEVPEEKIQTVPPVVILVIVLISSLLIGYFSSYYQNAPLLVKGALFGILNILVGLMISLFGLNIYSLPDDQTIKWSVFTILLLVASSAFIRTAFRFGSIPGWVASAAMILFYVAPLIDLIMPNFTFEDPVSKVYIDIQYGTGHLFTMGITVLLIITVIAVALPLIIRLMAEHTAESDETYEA
As to the kind of experiment: pull-down.

No constants are given. Whether binding was seen depends on the method and setting. For part of these data: Binding seen in cells or lysates may run through a third protein. Some binding calls cover weakened binding; strength is not graded here. For part of these data: Where a sequence is shown, tags or fusion partners need not be part of it.

In the case of “YukB N-terminal region (residues 1-256), BACTH fusion (from UniProt C0SPA7 1-256) (domain or fragment)”, the binding entry in experiment [1] is given as “binds”.

Consider “YukB (BACTH fusion) (from UniProt C0SPA7 1-1495)”, for which the binding result in experiment [1], in [2] and in experiment [3] was “binds” in each case. With “YxiD N-terminal region (YxiDN), BACTH fusion (from UniProt P42296 1-97) (domain or fragment)”, the binding entry in [1], in [4] and in experiment [5] was “binds” throughout.

Take “YueC (BACTH fusion) (from UniProt O32100 1-151)”: the figures for the binding result in experiment [1] and in experiment [6] were “binds” and “no binding”, respectively.

B1: YueB (BACTH fusion) (protein, UniProt O32101 1-1076)
chain: MTEQRKSLIKLISAVIIILLLPVLFFRFIGDDPTKKAVNSTRQIAVVNEDTGVLSDEVKSDEEDKSAQFGKEVAAVLGERPDYSWTVVNRSAAETGLASKKYDAIVYIPSDFSKNILSYDKDHPQKATLEFSIQDNLNAVNKEKVQRELEDAQKTMNKKMSALYWNFVSQKVDNIRGEFDKIVNKESEFQNVMYNFYKPSSNDLAGEIKQQKDLIDELKKSMNEAQGTTKEKASTAEEAKNTLKEFIDTVERYKEYQENQKKLLLAAQDSTQQQIRTGLDAIQAQQKANQFSERMSGLATGIGQAKTQIGLTNLALNNAEKLRQNQVPLQEMGMKKIENDMFNAFLSRYKSQYEAIKYQNLNQLQENIGKNRLSLLKPKESDEKEDGEDTSDNKDDTDKEDIEDIKLDLEKQRDELKNVATEIKDISEGLKEPEQEKPTTPDAEEPSTDDSPNTEEPSNDIPTSDDQPTNEDTGSSEEGTQDNGSQNDVQTNIETGQKHQESSKNVPEQDTNTENTGTSKTDFSLIELADENDGSNQSDGLQGDGADGETDISGAKKRLNEAAIKLEEIENALQEKQEEHNNKLEKHIDELNQEIKELNKTVSKLNDQIGDLTKKLVDFDNNVNDAYRLIYNLEDEIIQTLQSRGYIDQKEKLSSIFSSRIETDNISNLMKYYNSLNLYKSTLNDNLDLGSLTIIKGEVIQEQDGNVQSVLALTPEESASWEALKNNTMQTDEDINSFIDGMTKFADDYSGYIRDSQAGVLDELTKISESAAKASEQLVTGATQESATFSNDGLSGTMALSVQDTVGQEVLQMSDMMGSLSDRQSGIIDYTTNMQQSVNDVQAKADTLNNNWGKNVASTKLVRNDVYGILGNTLVDGQNNGYVYDYLANPLKISGEVPEEKIQTVPPVVILVIVLISSLLIGYFSSYYQNAPLLVKGALFGILNILVGLMISLFGLNIYSLPDDQTIKWSVFTILLLVASSAFIRTAFRFGSIPGWVASAAMILFYVAPLIDLIMPNFTFEDPVSKVYIDIQYGTGHLFTMGITVLLIITVIAVALPLIIRLMAEHTAESDETYEA
As for B1, the binding result in experiment [1] and in [3] was “binds” throughout.

B2: YukBΔ256.his (FHA domains) (domain or fragment, UniProt C0SPA7 1-256)
chain: MSLLWVFYQNNVQKLNLSNLPSSHPVTIGPDVKDSVTISTIPFNSGVISLKRKESGGQYEVFLGNDCLGTIETDISFTLQTDQQDIRLILTGSEPEKSVYFTGNRDEIVCSSEKTNADIYLNPQDFAFAEQSTFSLLRAGGSWSVRPESGTIFLNGEKINANTPLKPGDEIFWNFTQMRVTEQDLLEIVHYAQFETALTETVKPSTEMQKKYPQYRRTPRMVYDLPDDRVSFSFPSQESDQTNRGLWLVILPPLVM
For the molecule B2, the binding entry in experiment [7] and in experiment [8] was “binds” in each case.

B3: YukC (BACTH fusion) (protein, UniProt P71070 1-451)
chain: MSGEQKSYLENQLEAVAEKTDAGYTFTFQREKIKLLDGLEANVIKDINPFFHKEIDVTDDEVIITIQPPSSYKAFRFMKAKDKKSKWQFAYQLVQAVQQHNLSRLNLIVAPENIVFDKGLTPYFLHYGVKESIPPYERDEERVWQELKAAAALAVDGAFAFEDYLKFNETLTFSAEAKAILDAESYDDLLELIQTHIDELEAKAKTYIHIPRKKWNIQRYIGLGLIVLLVPALIYSMYALFFAQPKHQAIVDSNRAFLNKQYSEVISTLSKYDAESLPESVQYQLATSYVEVENLGSAKTKNIENNLVTLQSDPQHFLYWIDYGRGEYKEAISIGRKLEYNDYIYFALAKYKQQLLSEDTNDEDIQKELDSVNSELEKAQKERQENKQSNSETSLVDTSEEQTQTDEEKQAEEKAAEEKAAAEEKAKKEEQKEKEDEKKETEKKDEKKDDK
For B3, in experiment [1], the binding entry is on record as “binds”.

B4: YukC.his (protein, UniProt P71070 1-451)
chain: MSGEQKSYLENQLEAVAEKTDAGYTFTFQREKIKLLDGLEANVIKDINPFFHKEIDVTDDEVIITIQPPSSYKAFRFMKAKDKKSKWQFAYQLVQAVQQHNLSRLNLIVAPENIVFDKGLTPYFLHYGVKESIPPYERDEERVWQELKAAAALAVDGAFAFEDYLKFNETLTFSAEAKAILDAESYDDLLELIQTHIDELEAKAKTYIHIPRKKWNIQRYIGLGLIVLLVPALIYSMYALFFAQPKHQAIVDSNRAFLNKQYSEVISTLSKYDAESLPESVQYQLATSYVEVENLGSAKTKNIENNLVTLQSDPQHFLYWIDYGRGEYKEAISIGRKLEYNDYIYFALAKYKQQLLSEDTNDEDIQKELDSVNSELEKAQKERQENKQSNSETSLVDTSEEQTQTDEEKQAEEKAAEEKAAAEEKAKKEEQKEKEDEKKETEKKDEKKDDK
On to B4, for which the binding entry in [9] is recorded as “binds”.

B5: YukE.his (protein, UniProt C0SP85 1-97)
chain: MAGLIRVTPEELRAMAKQYGVESQEVLNQVDRLNRMISDLKSMWEGASSEAFADQYEQLKPSFIKMSDLLQDVNQQLDQTANTLESTDQDIANQIRG
As for B5, the binding entry in [7] is “binds”.

B6: YukE (BACTH fusion) (protein, UniProt C0SP85 1-97)
chain: MAGLIRVTPEELRAMAKQYGVESQEVLNQVDRLNRMISDLKSMWEGASSEAFADQYEQLKPSFIKMSDLLQDVNQQLDQTANTLESTDQDIANQIRG
Take B6: the binding entry in experiment [1] and in experiment [4] was “binds” throughout.

These data come from article doi:10.1101/2020.05.09.085852 (bioRxiv, 2020).
